Measured values reported in the supplement of paper PMC5949888.
Most values lie at the floor of the assay. Slopes are relative: functional sequences can read slightly below zero.

The substances below were run on Saccharomyces cerevisiae PS128 hsf1 delta, HSF1(1-493) fusion (assay: growth estimate (transactivation domain function in HSF1 fusion, heat-shock survival) (a.u. (slope of normalised read count over time)); higher = stronger growth at 37°C, i.e. more transactivation activity). Conditions: library: random library.

Substance | growth estimate
IAGSFVGLYGVHRRHTSTQS | < -0.25
RVRKLLKCCPASDFGRTFRG | < -0.25
GTFEH | < -0.25
RFTRNGCLSYTRASLPCVCS | < -0.25
FISGKGHTAWPVNAGGKRVP | < -0.25
GHRCKERGIFLTGR | < -0.25
RPSSQAWPSMY | < -0.25
ARNGTVERLCSCHGKRLHPA | < -0.25
SCMDYDSPRYTFSPKSGTR | < -0.25
DIVFATPRGKVALNTGVTVL | < -0.25
MIVNKSARQRSHSTPANAR | < -0.25
MANQTSNSRFIERGHSWTLP | < -0.25
MCEEPARVERSI | < -0.25
VRSIGTHGQVQPTAVRRQQL | < -0.25
NDRPFEVQSRAVCVHLPRN | < -0.25
GLSTRRDSTFTHVRCWSVMK | < -0.25
FSPCRGVEFYNRFAPN | < -0.25
PHKADGNDVFVAVGTPRVD | < -0.25
DGSRRSRRVGSVC | < -0.25
YLCNFATGTGAESRIVKGLV | < -0.25
IVMQCLRLKCGIGIVHKGFS | < -0.25
SIWLIRRSFARSRPGILTS | -0.229
ARRGQGAFDSGSSLLN | < -0.25

Substance | growth estimate
LIPV | < -0.25
LHTPMGGTSYIQGYMDEAGS | < -0.25
MVAGALRFRSRRGRS | < -0.25
SKRGMVRFTVRLVRVKVPSG | < -0.25
KGGAVQNLGGSGNDLRLGSR | < -0.25
FWSPLLDLDPYSK | -0.169
NNRQKQDQLQLQAAIISPTT | -0.183
CILFWEI | < -0.25
RVVDVVI | -0.243
ALQHLFIPVEHW | < -0.25
DGGSNFAFSMYVSAMLSSSS | < -0.25
AGRSLSENYRVLAPPSMH | -0.243
LHVFCFARVHAKQEQYAGVV | < -0.25
REDHVT | < -0.25
FSVPTIVVNRET | < -0.25
HKRGLFL | < -0.25
DAYRFGLHTASSVRGSENEE | < -0.25
LIRSSAGW | < -0.25
YVGSRA | < -0.25
NWGHPCHRYIFVTDPL | < -0.25
ITCWSSATHPYLLAMHRQFA | < -0.25
THLVSLFFLSGKRPVDRECG | < -0.25
LEPRPVMYYDRAFTASPLPT | < -0.25

Substance | growth estimate
SGVWMH | < -0.25
SGFCISTIENSTECLSPSPF | < -0.25
SLNSESIT | < -0.25
DFQQSCCDGARIWPYGLSHP | < -0.25
YQDTHGRAVSIPVYLQYGQR | < -0.25
KGSCN | < -0.25
NVIEDYVILYAGR | < -0.25
TGMGPGLSCNCDIRRQGLKQ | < -0.25
CTDY | < -0.25
SNAGGFD | < -0.25
ALRQSKWADEWLFVRGTVMP | < -0.25
VRPKLGWLSLVTF | < -0.25
QASIHAAERCDVGTASGSRL | < -0.25
RLLSNFRFPWSSSAQSPRLV | < -0.25
YLFTDSLWF | -0.187
PGRCLPTRA | < -0.25
VSGGSLRHRLIPLGSVVP | < -0.25
HTNAESGRE | < -0.25
HASWPLITF | < -0.25
IAVCSGRRIDEYRRTGLYCT | < -0.25
HIASAVLKRTCTAARSRNAS | < -0.25
DIGVSTKPC | < -0.25
RNGFKSTAEFPALVAPNARR | < -0.25

Substance | growth estimate
APPAQVTKSRSFE | < -0.25
RYSKELSTGIVGLMARGRLI | < -0.25
RKSWGA | < -0.25
TFGVTV | -0.246
FGRA | < -0.25
YDPIARGCEATAYY | < -0.25
FHSLGYSGVSGVLRR | < -0.25
VPQDECRRLTQGSARNGGMM | < -0.25
TERCGGHS | < -0.25
GRARAVAQIGVCTLLDGTDA | < -0.25
LIPHAAKSVRVPRVRKL | < -0.25
KDRTGFCRPTRTSRHRS | < -0.25
LSLWVWYFPQMSSATMVQRT | < -0.25
IRMFR | < -0.25
GRNLPPADAGWPRTRRSSLV | < -0.25
GLQLNSAWERY | < -0.25
RLSASHRGKLWGVDSDSTGV | < -0.25
HRFETWCLENSQGGLYVHLP | < -0.25
IREGGPGEVTEAVVVRVVGE | < -0.25
GPRLPRSYK | < -0.25
CTWDTEAPRFVRVSRKANQL | < -0.25
ACAVVQKR | < -0.25
VACLGTGTLRAQAFCYRTYA | < -0.25

Substance | growth estimate
DLFTIDT | < -0.25
SSATSWIPRWNRKSGAPHVG | < -0.25
DEDYSGCIGGRIIAIVRIRH | < -0.25
TTSKAKSACIEQPKPPKTSV | < -0.25
SRIEISESGCVYLSTHRARI | < -0.25
LSSIHWDGRRPDCLCYKPAG | -0.229
FPPLNIYISCRFLA | < -0.25
CGKLYRIGILWFTQPVYRKI | < -0.25
RPGGNGIGRRVPTATSHLNF | < -0.25
GLRAIFSGTSLAESNLLGPA | < -0.25
TWPLA | -0.231
FGGHTRPPYRRADANSG | < -0.25
DRVGLILRSYARCRMRIIPR | < -0.25
FRNNAIRCSLVP | < -0.25
AASPGVLVVTRALRLVLTPS | < -0.25
AEEGHTRNMIITSEFPRLPP | < -0.25
AGPMWSYVGGCVWDRTFFI | < -0.25
GLRS | < -0.25
MIGHRRCRSTFAK | < -0.25
RFHSRPLATR | < -0.25
IGIFTHLKLCVWFIDGIVGE | < -0.25
WDRAVSAAVRTSTSRRTHLG | < -0.25
SSQTTRSSP | -0.245

Four entries from above, with each value named:
AASPGVLVVTRALRLVLTPS
  growth estimate = < -0.25
AEEGHTRNMIITSEFPRLPP
  growth estimate = < -0.25
AGPMWSYVGGCVWDRTFFI
  growth estimate = < -0.25
GLRS
  growth estimate = < -0.25

Continuation.

Substance | growth estimate
RRECGPGGNGYPGLGMSDAR | < -0.25
GTSNSCADQGRSALAHWRRC | < -0.25
VKCRHGPQLIVKRQQSCACS | < -0.25
PLLRRYLVS | < -0.25
PSLYDVHYT | < -0.25
IGLRRCTTGVVPPGY | < -0.25
ECTLS | < -0.25
FQFDYSAGPVGESS | < -0.25
TSVSVRSRF | < -0.25
KCKNLKRC | -0.219
VPSTVQPV | < -0.25
VGPAEYLKSLCLHRRRVSIS | < -0.25
LALKGAERSPDL | < -0.25
ASRRALRVRLAGPGVYIATP | < -0.25
APPSQ | < -0.25
LKLTVRSP | < -0.25
ISR | < -0.25
RLSFTQTARGPAGHLPMQPR | < -0.25
PYSQGETAWLTVLESLRQTQ | -0.182
GVLAEPPLYWMITPSHEQAK | < -0.25
SQGPAEWV | < -0.25
WPY | < -0.25
MRLPNCSC | < -0.25

Substance | growth estimate
PGFPRRHTLPFPELLVG | < -0.25
VQGLRSPEDGFRGAAPPKAA | < -0.25
HAFERFLYLKLAQWYNARRA | < -0.25
RLRHGTN | < -0.25
SRLWKH | < -0.25
GVALQAWSPNRVTAFIWTSR | < -0.25
RQLESTFLASYCIRETYHEA | < -0.25
GKRWRETPTLVGLRMYTKLR | < -0.25
GCLGLMPCLLVGPARVLSHI | -0.246
EGAEGCCHGVETYTANHCLR | < -0.25
LGGVTC | < -0.25
GVGWIHRHSVIRFNRQDFDY | < -0.25
GYVIRAPVVLARMVQRNDGS | < -0.25
NVSSPASYLGKCLSSKTVGV | < -0.25
VGSYRQHTRGGVNSRHDPLG | < -0.25
VSPGLSKEKQ | -0.245
TPMTVSINSQEKPPTASSPL | < -0.25
LKAVLLLLYRGSSHILSPRP | < -0.25

Rewritten with each value named: entries from further up
APPAQVTKSRSFE
  growth estimate = < -0.25
RYSKELSTGIVGLMARGRLI
  growth estimate = < -0.25
RKSWGA
  growth estimate = < -0.25
TFGVTV
  growth estimate = -0.246
